Source: patent US9127041 (dated 2015)

Experiment: peptide synthesis
Conditions: late stage modification step
[1] = calculated from HPLC area intensity

Row | Substance | step yield [%] | other results
1 | Ac-Val Tyr Ala Ser-NHC(NH)NHAc | – | step yield (from HPLC area intensity): 70%
2 | Ac-Val Tyr Ala Ser Cys(C(S)OPh)Gly-OH | 92 | –
3 | Ac-Val Tyr Ala Ala-NHC(NH)NHAc | – | step yield [1]: 80%
4 | Ac-Val Tyr Ala Lys Cys (C(S)OPh)Gly-OH | 94 | –
5 | Ac-Val Tyr Ala Ala Cys(C(S)OPh)Gly-OH | 88 | –
6 | Ac-Val Tyr Ala Leu Cys(C(S)OPh)Gly-OH | 92 | –
7 | BocHN-Leu Ile Cys(Acm)Asp Ser Arg Val Leu Glu Arg Tyr Leu Leu Glu Ala Lys(Boc)Glu Ala Glu Asn Ile Thr Thr Gly-SCH2CH2SO3 | – | step yield (on HPLC): unknown yield, about 70% on HPLC
8 | Ac-Val Tyr Ala Phe Cys (C(S)OPh) Gly-OH | 84 | –
9 | Ac-Val Tyr Ala Lys(Boc)-NHC (NH)NHAc | – | step yield [1]: 70%
